The numbers were not newly measured in patent US8039430B2 (University of Wollongong, priority 2005, dated 2011), which cites them from elsewhere.

For the data set, the system named is E. faecium isolate (VanD-type). As to conditions: VanD-type E. faecium isolate from the United States, constitutively resistant; cited from earlier work.

What is called MIC is the lowest concentration that inhibits growth of the organism. Take `CN[C@H](CC(C)C)C(=O)N[C@H]1C(=O)N[C@@H](CC(N)=O)C(=O)N[C@H]2C(=O)N[C@H]3C(=O)N[C@H](C(=O)N[C@H](C(=O)O)c4cc(O)cc(O)c4-c4cc3ccc4O)[C@H](O)c3ccc(c(Cl)c3)Oc3cc2cc(c3O[C@@H]2O[C@H](CO)[C@@H](O)[C@H](O)[C@H]2O[C@H]2C[C@](C)(N)[C@H](O)[C@H](C)O2)Oc2ccc(cc2Cl)[C@H]1O` [Vancomycin, vancomycin, reference compound]: the MIC is more than 64 µg/mL.
